# Experimental data published in the supplement of paper PMC9135407.
# Several values for one entry are separate records, joined by “and”; a condition that tells them apart may be missing. Equal entries are not always repeated. Structures can show the parent of a compound that is named as a salt. ± gives the standard deviation of the averaged measurements. The list shows a part of the results. Baselines shift from plate to plate; read single values as rough.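 Culture-activated primary human stellate myofibroblasts, where regained lipid droplets signal inactivation. Value: share of Hoechst-counted cells above a per-plate Bodipy cutoff, in duplicate wells, with DMSO negative and nortriptyline positive controls on each plate. Hits: a control-normalized score above the plate's top-tenth-percentile nortriptyline wells, or one of a plate's three best wells. Final well concentrations are not given.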
# Tested on: primary human hepatic stellate cells (donor 1)
# Test: percent Bodipy-positive cells; higher = more lipid droplet accumulation
# Settings: 48 h
# Experimental: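 Primary lipid accumulation screen in primary human hepatic stellate cell myofibroblasts (donor 1, passage 8) in 384-well plates. 100 nL of library compound was pin-transferred into 30 µL medium in duplicate, and cells were treated for 48 h. The 'Scaled' score combines distance from plate baseline, toxicity and reproducibility penalties, and is normalised to nortriptyline (positive) and DMSO (negative) controls on each plate. A hit is defined as scaled >0.85 or among the top 3 wells per plate.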
# [1] = library stock concentration: 10 mM
# [2] = library stock concentration: 3.33 mM
# [3] = library stock concentration: 1 mM
# [4] = library stock concentration: 80 uM
# [5] = library stock concentration: 400 uM
# [6] = library stock concentration: 2 mM
smiles,measurement,setting,value
C[C@H]1c2cccc(O)c2C(=O)C2=C(O)[C@]3(O)C(=O)C(C(N)=O)=C(O)[C@@H](N(C)C)[C@@H]3[C@@H](O)[C@@H]21 [Doxycycline hyclate],percent Bodipy-positive cells,,9.01 ± 1.8%
C[C@H]1c2cccc(O)c2C(=O)C2=C(O)[C@]3(O)C(=O)C(C(N)=O)=C(O)[C@@H](N(C)C)[C@@H]3[C@@H](O)[C@@H]21,percent Bodipy-positive cells,[1],33.9 ± 5.5%
C[C@H]1c2cccc(O)c2C(=O)C2=C(O)[C@]3(O)C(=O)C(C(N)=O)=C(O)[C@@H](N(C)C)[C@@H]3[C@@H](O)[C@@H]21 [Doxycycline hydrochloride],percent Bodipy-positive cells,[1],8.368 ± 0.016%
C[C@H]1c2cccc(O)c2C(=O)C2=C(O)[C@]3(O)C(=O)C(C(N)=O)=C(O)[C@@H](N(C)C)[C@@H]3[C@@H](O)[C@@H]21 [Doxycycline HCl],percent Bodipy-positive cells,[2],8.04 ± 3.5%
same,percent Bodipy-positive cells,library stock concentration: 4.5 mM,7.33 ± 0.44%
same,percent Bodipy-positive cells,[1],30.7 ± 5.5%
N[C@@H](CSC(c1ccccc1)(c1ccccc1)c1ccccc1)C(=O)O [S-Trityl-L-cysteine],percent Bodipy-positive cells,[1],11.7 ± 1.8%
O=C1/C(=C/c2cccs2)CCC/C1=C\c1cccs1,percent Bodipy-positive cells,[1],55.7 ± 35%
O=C(c1ccc(Nc2nccc(-c3cc4ccccc4s3)n2)cc1)N1CCC(N2CCCC2)CC1 [IKK Inhibitor VII],percent Bodipy-positive cells,[2],91.4 ± 5.2%
CCCCCCCCCCCCC(=O)NC1CCOC1=O [N-tridecanoyl-L-Homoserine lactone],percent Bodipy-positive cells,[3],12.6 ± 5.3%
Cc1c(C(=O)NN2CCCCC2)nn(-c2ccc(Cl)cc2Cl)c1-c1ccc(Cl)cc1 [Rimonabant],percent Bodipy-positive cells,[2],25.7 ± 8.3%
same,percent Bodipy-positive cells,[1],10.6 ± 0.14%
Nc1ccc(C(=O)Nc2cccc(-c3nc(N4CCOCC4)c4oc5ncccc5c4n3)c2)cn1,percent Bodipy-positive cells,[1],87.85 ± 0.2%
CCOC(=O)COc1ccc2c(=O)cc(-c3ccccc3)oc2c1,percent Bodipy-positive cells,[1],44.2 ± 9.8%
O=C(NCC1(c2nc(-c3ccccc3)cs2)CCOCC1)c1cccc(-c2noc(C(F)(F)F)n2)c1,percent Bodipy-positive cells,[2],35.9 ± 3.6%
same,percent Bodipy-positive cells,[1],28.1 ± 0.97%
CNCc1ccc(-c2cc(-c3nc(-c4ccc(S(=O)(=O)C(C)C)cc4)cnc3N)on2)cc1,percent Bodipy-positive cells,[2],97.24 ± 0.74%
CCCCCCCC/C=C\CCCCCCCC(=O)OC[C@H](CO)OC(C)=O [1-Oleoyl-2-acetyl-sn-glycerol],percent Bodipy-positive cells,[3],6.22 ± 0.22%
CCCCCCCC/C=C\CCCCCCCC(=O)OC[C@H](CO)OC(C)=O [1-Oleoyl 2-acetyl-glycerol],percent Bodipy-positive cells,[3],9.93 ± 9.3%
O=C(O)C(=O)O.[NH-][C@@H]1CCCC[C@H]1[NH-].[Pt+2] [Oxaliplatin],percent Bodipy-positive cells,[2],13.8 ± 7.2%
same,percent Bodipy-positive cells,library stock concentration: 5 mM,3.83 ± 0.12%
same,percent Bodipy-positive cells,[1],20.4% and 7.25%
CSc1cc2c(cc1C(F)(F)F)N(C(=O)Nc1cccnc1)CC2,percent Bodipy-positive cells,[1],14.7 ± 7.1%
Cc1cc2nc3c(=O)[nH]c(=O)nc-3n(C)c2cc1C=O,percent Bodipy-positive cells,[1],11.1 ± 0.97%
Cc1ccc(NC(=O)c2ccc(CN3CCN(C)CC3)cc2)cc1Nc1nccc(-c2cccnc2)n1 [Imatinib],percent Bodipy-positive cells,[4],15.1 ± 13%
same,percent Bodipy-positive cells,[5],18.4 ± 4%
same,percent Bodipy-positive cells,[6],24.86 ± 0.2%
Cc1ccc(NC(=O)c2ccc(CN3CCN(C)CC3)cc2)cc1Nc1nccc(-c2cccnc2)n1,percent Bodipy-positive cells,[5],7.3 ± 0.71%
same,percent Bodipy-positive cells,[6],29.4 ± 4.4%
same,percent Bodipy-positive cells,[1],93.4 ± 3.9%
Cc1ccc(NC(=O)c2ccc(CN3CCN(C)CC3)cc2)cc1Nc1nccc(-c2cccnc2)n1 [Imatinib (STI571)],percent Bodipy-positive cells,[2],30 ± 12%
Cc1ccc(NC(=O)c2ccc(CN3CCN(C)CC3)cc2)cc1Nc1nccc(-c2cccnc2)n1 [Imatinib Mesylate (STI571)],percent Bodipy-positive cells,[2],40.3 ± 7.7%
CC(C)C(=O)Oc1ccc(CO)cc1[C@H](CCN(C(C)C)C(C)C)c1ccccc1 [Fesoterodine Fumarate],percent Bodipy-positive cells,[2],31.6 ± 4.9%
Cc1nn(-c2ccccc2)c(C)c1C=NN1CCN(Cc2ccccc2)CC1,percent Bodipy-positive cells,[2],38.1 ± 3.4%
CCCCC/C=C\C/C=C\C/C=C\C=C\[C@@H](O)CCCC(=O)O,percent Bodipy-positive cells,library stock concentration: 100 uM,28.2 ± 28%
CCCCC[C@H](O)/C=C/[C@@H]1[C@H]2C/C(=C\CCCC(=O)O)C[C@H]2C[C@H]1O [5-cis Carbaprostacyclin],percent Bodipy-positive cells,[3],16.3 ± 4%
N=C(N)c1ccc(N2CCN(C3CCN(CC(=O)O)CC3)CC2)cc1,percent Bodipy-positive cells,[1],11.5 ± 5.8%
Fc1ccc(CN(C2=NCCN2)c2c(Cl)cccc2Cl)cc1 [IMID-4F hydrochloride],percent Bodipy-positive cells,[1],80.6 ± 4.3%
CCc1c2c(nc3ccc(O)cc13)-c1cc3c(c(=O)n1C2)COC(=O)[C@]3(O)CC,percent Bodipy-positive cells,[2],32.5 ± 2.6%
"COC(=O)CCC[C@H](O)[C@H](O)CO [5(S),6(R)-7-trihydroxymethyl Heptanoate]",percent Bodipy-positive cells,[3],10.7 ± 2.8%
CCCCCCCCCCCCCCP(=O)(O)O [Tetradecyl Phosphonate],percent Bodipy-positive cells,[3],8.36 ± 1.5%
CCOC(=O)O[C@]1(C(=O)OCCl)CC[C@H]2[C@@H]3CCC4=CC(=O)C=C[C@]4(C)[C@H]3[C@@H](O)C[C@@]21C,percent Bodipy-positive cells,[1],7.04 ± 4.2%
CCOC(=O)O[C@]1(C(=O)OCCl)CC[C@H]2[C@@H]3CCC4=CC(=O)C=C[C@]4(C)[C@H]3[C@@H](O)C[C@@]21C [Loteprednol etabonate],percent Bodipy-positive cells,[2],6.21 ± 0.15%
same,percent Bodipy-positive cells,[1],9.48 ± 4.8%
CC[C@H]1C(=O)OC[C@@H]1Cc1cncn1C [Isopilocarpine nitrate],percent Bodipy-positive cells,[1],23.2 ± 18%
CCCCCCCC/C=C\CCCCCCCCOC[C@H](COP(=O)([O-])OCC[N+](C)(C)C)OC(C)=O,percent Bodipy-positive cells,[3],8.46 ± 4%
CCc1cc2c(cc1N1CCC(N3CCOCC3)CC1)C(C)(C)c1[nH]c3cc(C#N)ccc3c1C2=O,percent Bodipy-positive cells,[4],5.6 ± 0.17%
same,percent Bodipy-positive cells,[5],9.52 ± 2.2%
same,percent Bodipy-positive cells,[6],20.9 ± 3.6%
"Cn1c(=O)c2[nH]c(-c3ccccc3)nc2n(C)c1=O [1,3-Dimethyl-8-phenylxanthine]",percent Bodipy-positive cells,[1],39.4 ± 22%
COC(=O)C1=CO[C@@H](O[C@@H]2O[C@H](CO)[C@@H](O)[C@H](O)[C@H]2O)[C@@H]2C(CO)=CC[C@H]12 [Geniposide],percent Bodipy-positive cells,[2],24.6 ± 13%
same,percent Bodipy-positive cells,[1],28.9 ± 2.1%
CCCn1cc(-c2ccnc(NC3CCN(Cc4cccnc4)CC3)n2)c(C)n1,percent Bodipy-positive cells,[1],86.9 ± 2.9%

# Exported as tab-separated lines: part of the list above
smiles	measurement	setting	value
C[C@H]1c2cccc(O)c2C(=O)C2=C(O)[C@]3(O)C(=O)C(C(N)=O)=C(O)[C@@H](N(C)C)[C@@H]3[C@@H](O)[C@@H]21	percent Bodipy-positive cells	[1]	33.9 ± 5.5%
C[C@H]1c2cccc(O)c2C(=O)C2=C(O)[C@]3(O)C(=O)C(C(N)=O)=C(O)[C@@H](N(C)C)[C@@H]3[C@@H](O)[C@@H]21 [Doxycycline hydrochloride]	percent Bodipy-positive cells	[1]	8.368 ± 0.016%
C[C@H]1c2cccc(O)c2C(=O)C2=C(O)[C@]3(O)C(=O)C(C(N)=O)=C(O)[C@@H](N(C)C)[C@@H]3[C@@H](O)[C@@H]21 [Doxycycline HCl]	percent Bodipy-positive cells	[2]	8.04 ± 3.5%
